One assay concerns the target GCN2 kinase (Homo sapiens, UniProt Q9P2K8). Briefly: GCN2 enzyme inhibition assay (Transcreener ADP2 fluorescence polarization). The conditions noted are these: read-out: GCN2 (Ki); Enzyme activity for compounds of Formula IV; Ki(app), 280 μM ATP, 25° C. Here is the method:
Compounds were screened for their ability to inhibit GCN2 kinase activity using a Transcreener® ADP^2 fluorescence polarization assay that detects ADP levels (BellBrook Labs, WI). Assays were carried out in a buffer consisting of 25 mM Tris-HCl (pH 7.5), 50 mM NaCl, 10 mM MgCl2 and 1 mM DTT. Final substrate concentrations were 280 μM ATP and 200 μM peptidic substrate (H-[…]OH [(RS)7], Bachem, Switzerland). Assays were carried out at 25° C. in the presence of a (typical) final concentration of 4 nM GCN2 kinase.
An assay buffer containing GCN2 kinase and (RS)7 was prepared. 4.7 μL of this stock solution was placed per well of a black, low volume, 384-well microtitre plate (e.g. catalogue number 3676, Corning Inc., NY). […] The reaction was left to incubate for 1 hour at 25° C., prior to measuring the fluorescence polarisation signal (mP) in each well using a PHERAstar FS reader (BMG Labtech, Germany).
Fluorescence polarization values were normalized to an in plate standard curve consisting of various ratios of ATP to ADP in assay buffer to a final total concentration of 280 μM. […] Percentage inhibition of enzyme activity was then calculated at each compound dose. IC50 and Ki(app) (using known assay and kinetic parameters) values were calculated from percentage inhibition data using a non-linear, tight-binding algorithm. […]

The chains behind the UniProt entries cited, without tags or fusion partners.
UniProt Q9P2K8, whole entry: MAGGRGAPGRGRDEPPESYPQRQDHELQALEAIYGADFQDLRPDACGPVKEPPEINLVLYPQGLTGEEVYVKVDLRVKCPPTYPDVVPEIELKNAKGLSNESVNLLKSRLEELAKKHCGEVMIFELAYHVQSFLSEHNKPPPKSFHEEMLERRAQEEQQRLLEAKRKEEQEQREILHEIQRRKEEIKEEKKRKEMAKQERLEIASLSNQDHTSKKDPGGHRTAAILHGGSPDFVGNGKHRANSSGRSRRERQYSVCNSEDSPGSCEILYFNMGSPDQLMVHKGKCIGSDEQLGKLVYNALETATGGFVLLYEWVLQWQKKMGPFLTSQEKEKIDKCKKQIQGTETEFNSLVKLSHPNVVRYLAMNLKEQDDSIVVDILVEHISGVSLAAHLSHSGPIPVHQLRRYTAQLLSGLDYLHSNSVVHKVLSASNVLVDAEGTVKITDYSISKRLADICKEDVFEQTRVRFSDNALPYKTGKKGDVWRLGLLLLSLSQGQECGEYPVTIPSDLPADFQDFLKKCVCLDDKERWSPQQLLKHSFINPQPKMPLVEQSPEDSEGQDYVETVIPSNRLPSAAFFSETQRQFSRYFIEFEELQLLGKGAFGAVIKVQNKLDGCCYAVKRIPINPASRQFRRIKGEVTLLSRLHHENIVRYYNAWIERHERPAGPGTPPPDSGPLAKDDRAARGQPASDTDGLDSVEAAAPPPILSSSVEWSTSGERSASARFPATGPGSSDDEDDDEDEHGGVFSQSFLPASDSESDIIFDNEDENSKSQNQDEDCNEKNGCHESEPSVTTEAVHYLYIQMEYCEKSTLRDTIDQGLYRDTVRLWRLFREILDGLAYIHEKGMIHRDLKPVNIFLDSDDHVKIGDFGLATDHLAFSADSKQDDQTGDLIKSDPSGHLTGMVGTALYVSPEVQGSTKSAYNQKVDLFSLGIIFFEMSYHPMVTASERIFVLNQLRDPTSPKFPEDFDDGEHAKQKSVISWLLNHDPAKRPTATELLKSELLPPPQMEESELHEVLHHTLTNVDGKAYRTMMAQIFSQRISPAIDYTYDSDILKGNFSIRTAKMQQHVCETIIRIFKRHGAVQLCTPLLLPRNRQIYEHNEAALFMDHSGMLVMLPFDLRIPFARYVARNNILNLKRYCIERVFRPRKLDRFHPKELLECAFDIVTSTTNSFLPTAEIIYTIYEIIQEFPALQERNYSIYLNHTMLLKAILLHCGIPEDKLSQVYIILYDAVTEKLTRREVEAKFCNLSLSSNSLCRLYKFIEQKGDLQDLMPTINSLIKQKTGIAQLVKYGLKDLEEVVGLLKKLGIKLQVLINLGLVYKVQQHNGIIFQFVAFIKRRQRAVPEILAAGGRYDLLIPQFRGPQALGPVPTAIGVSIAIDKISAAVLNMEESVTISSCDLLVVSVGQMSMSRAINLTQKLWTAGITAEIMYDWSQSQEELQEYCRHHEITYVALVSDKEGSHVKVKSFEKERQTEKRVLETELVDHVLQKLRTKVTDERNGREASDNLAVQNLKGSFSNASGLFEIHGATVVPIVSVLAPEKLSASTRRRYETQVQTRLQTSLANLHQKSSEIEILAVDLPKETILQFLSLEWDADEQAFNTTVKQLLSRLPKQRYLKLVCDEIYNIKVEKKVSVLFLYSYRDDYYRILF

Assay [1] deals with intracellular GCN2 (phosphorylation of the GCN2 substrate eIF2α) (Homo sapiens, UniProt Q9P2K8). Briefly: GCN2 cellular inhibition assay (AlphaScreen SureFire P-eIF2α Ser51, borrelidin-treated U2OS cells). The conditions noted are these: read-out: GCN2 Biomarker (IC50), compounds of Formula IV, phosphorylated eIF2α Ser51 in borrelidin-treated U2OS cells. On the procedure: Compounds can be screened for their ability to inhibit intracellular GCN2 using an AlphaScreen assay (Perkin Elmer) to detect phosphorylation of the GCN2 substrate eIF2α in borrelidin-treated cells. U2OS cells are plated at 5,000 cells per well in 384-well white polystyrene plates (Corning 3570) in McCoy's 5 A media (GIBCO 26600-023) supplemented with 10% foetal bovine serum (SAFC 12103C), Penicillin/Streptomycin solution diluted 1:100 (Sigma P0781), and 2 mM L-glutamine (Sigma G7513), and allowed to adhere overnight at 37° C. in 5% CO2. Compounds are then added to the cell media from a final concentration of 40 μM in 4-fold serial dilutions. Borrelidin (FluoroChem M01440) is immediately added to the wells to a final concentration of 10 μM and the cells are incubated for 1 h at 37° C. in 5% CO2. After 1 h of treatment with borrelidin, the media is removed, and the cells are lysed with lysis buffer (TGR BioSciences TGRLB) at ambient temperature.
An AlphaScreen SureFire P-eIF2α (Ser51) assay kit (Perkin Elmer TGREIF2S) was used to measure levels of eIF2α phosphorylated on Serine 51. […]
Plates are analyzed on an Alpha Technology-compatible PHERAstar FS plate reader (BMG Labtech Version 1.14) to quantify phosphorylated eIF2α Ser51 levels. The percentage inhibition of phosphorylated eIF2α is calculated by comparison to control wells stimulated with borrelidin alone.

Structures were worked out from names or drawings and are uncertain.

The values that follow come from patent US10988477B2 (Merck Patent GmbH, priority 2018, dated 2021).

With `CC1CN(c2ccnc(-c3cnc4cnc(C(F)(F)F)cn34)n2)C(C)C(c2c[nH]cn2)N1` (stereo not drawn), the Ki at GCN2 kinase lay within 10 to 100 nM.
Take `C[C@@H]1NC[C@H](C)N(c2ccnc(-c3cnc4cnc(Br)cn34)n2)[C@@H]1c1c[nH]cn1` (relative stereo): the Ki at GCN2 kinase is 10 to 100 nM. Moreover, the IC50 in assay [1] was in the range of 500 to 5000 nM.
